Consider 6 compounds from patent US20250243245A1 (priority 2022, published 2025).

Where a SMILES comes first, the peptide text is derived from it.

The test system of the series is E. coli BL21. To be noted: Table II; dose-response curve fitted to Hill equation.
As to `CC[C@H](C)[C@H](NC(=O)[C@H](CCCCN)NC(=O)[C@H](CC(C)C)NC(=O)[C@@H](NC(=O)[C@H](CCCCN)NC(=O)[C@H](CCCCN)NC(=O)[C@@H](NC(=O)[C@H](CC(C)C)NC(=O)[C@H](CCCCN)NC(=O)[C@@H](N)CCCCN)[C@@H](C)CC)[C@@H](C)CC)C(=O)N[C@@H](CC(C)C)C(=O)O` [Peptide 11P-1, reference compound] (H-KKLIKKILKIL-OH; N-terminus and C-terminus assumed), the Hill coefficient (usually the slope factor of the fitted curve) is reported as 6. Then `CC[C@H](C)[C@H](NC(=O)[C@H](CCCNC(=N)N)NC(=O)[C@H](CCCNC(=N)N)NC(=O)[C@H](CCC(N)=O)NC(=O)[C@H](Cc1c[nH]c2ccccc12)NC(=O)[C@@H](N)Cc1ccccc1)C(=O)N[C@@H](CCCNC(=N)N)C(=O)N[C@@H](CCCNC(=N)N)C(=O)N[C@@H](Cc1c[nH]c2ccccc12)C(=O)N[C@@H](CCCNC(=N)N)C(=O)N[C@@H](CCCNC(=N)N)C(=O)O` [Peptide 11P-3, reference compound] (H-FWQRRIRRWRR-OH; N-terminus and C-terminus assumed), with 4; and `CC(C)C[C@@H]1NC(=O)[C@H](CCCNC(=N)N)NC(=O)[C@H](CCCNC(=N)N)NC(=O)[C@@H](NC(=O)[C@@H](N)CCCCN)CSSC[C@@H](C(=O)N[C@@H](CCCNC(=N)N)C(=O)NCC(=O)N[C@@H](CCCNC(=N)N)C(=O)N[C@@H](CCC(N)=O)C(=O)O)NC(=O)[C@H](Cc2ccc(O)cc2)NC(=O)[C@H]([C@@H](C)O)NC(=O)[C@H](C(C)C)NC(=O)[C@@H]2CSSC[C@H](NC1=O)C(=O)N[C@@H](Cc1ccc(O)cc1)C(=O)N[C@@H](CCCCN)C(=O)N[C@@H](CCC(N)=O)C(=O)N[C@@H](CCCNC(=N)N)C(=O)N2` [Peptide L19GA, KC2RRLC6YKQRC11VTYC15RGRQ], with 20.

`CC[C@H](C)[C@H](NC(=O)[C@H](CCCCN)NC(=O)[C@H](CC(C)C)NC(=O)[C@@H](NC(=O)[C@H](CCC(=O)O)NC(=O)[C@H](CCCCN)NC(=O)[C@@H]1CCCN1C(=O)[C@H](CC(C)C)NC(=O)[C@H](CCCCN)NC(=O)[C@@H](N)CCCCN)[C@@H](C)CC)C(=O)N[C@@H](CC(C)C)C(=O)NCC(=O)N[C@@H](CO)C(=O)NCC(=O)N[C@@H](Cc1ccc(O)cc1)C(=O)NCC(=O)N[C@@H](CO)C(=O)N[C@@H](CC(C)C)C(=O)N1CCC[C@H]1C(=O)N[C@@H](CCCCN)C(=O)N[C@@H](CCC(=O)O)C(=O)N[C@H](C(=O)N[C@@H](CC(C)C)C(=O)N[C@@H](CCCCN)C(=O)N[C@H](C(=O)N[C@@H](CC(C)C)C(=O)N[C@@H](CCC(=O)O)C(=O)N[C@@H](CC(C)C)C(=O)N[C@@H](CCCCN)C(=O)N[C@@H](CCCCN)C(=O)O)[C@@H](C)CC)[C@@H](C)CC` [Gen-1] (H-KKLPKEILKILGSGYGSLPKEILKILELKK-OH; N-terminus and C-terminus assumed): the Hill coefficient is reported as 41. Then `CC[C@H](C)[C@H](NC(=O)[C@H](CCC(=O)O)NC(=O)[C@H](CC(C)C)NC(=O)[C@@H](NC(=O)[C@H](CCCCN)NC(=O)[C@H](CCC(=O)O)NC(=O)[C@@H]1CCCN1C(=O)[C@H](CC(C)C)NC(=O)[C@H](CCCCN)NC(=O)[C@@H](N)CCCCN)[C@@H](C)CC)C(=O)N[C@@H](CC(C)C)C(=O)NCC(=O)N[C@@H](CO)C(=O)NCC(=O)N[C@@H](Cc1ccc(O)cc1)C(=O)N[C@@H](CCCCN)C(=O)N[C@@H](CCCCN)C(=O)N[C@@H](CC(C)C)C(=O)N1CCC[C@H]1C(=O)N[C@@H](Cc1ccccc1)C(=O)N[C@@H](Cc1c[nH]c2ccccc12)C(=O)N[C@@H](CCC(N)=O)C(=O)N[C@@H](CCCNC(=N)N)C(=O)N[C@@H](CCCNC(=N)N)C(=O)N[C@H](C(=O)N[C@@H](CCCNC(=N)N)C(=O)N[C@@H](CCCNC(=N)N)C(=O)N[C@@H](Cc1c[nH]c2ccccc12)C(=O)N[C@@H](CCCNC(=N)N)C(=O)N[C@@H](CCCNC(=N)N)C(=O)O)[C@@H](C)CC` [Gen-2] (H-KKLPEKILEILGSGYKKLPFWQRRIRRWRR-OH; N-terminus and C-terminus assumed), with 10; and `CC[C@H](C)[C@H](NC(=O)[C@H](CCCCN)NC(=O)[C@H](CC(C)C)NC(=O)[C@@H](NC(=O)[C@H](CCCCN)NC(=O)[C@H](CCCCN)NC(=O)[C@@H]1CCCN1C(=O)[C@H](CC(C)C)NC(=O)[C@H](CCCCN)NC(=O)[C@@H](N)CCCCN)[C@@H](C)CC)C(=O)N[C@@H](CC(C)C)C(=O)NCC(=O)N[C@@H](CO)C(=O)NCC(=O)N[C@@H](Cc1ccc(O)cc1)C(=O)NCC(=O)N[C@@H](CO)C(=O)N1CCC[C@H]1C(=O)NCC(=O)N[C@@H](Cc1ccccc1)C(=O)N[C@@H](Cc1c[nH]c2ccccc12)C(=O)N[C@@H](CCC(N)=O)C(=O)N[C@@H](CCCNC(=N)N)C(=O)N[C@@H](CCCNC(=N)N)C(=O)N[C@H](C(=O)N[C@@H](CCCNC(=N)N)C(=O)N[C@@H](CCCNC(=N)N)C(=O)N[C@@H](Cc1c[nH]c2ccccc12)C(=O)N[C@@H](CCCNC(=N)N)C(=O)N[C@@H](CCCNC(=N)N)C(=O)O)[C@@H](C)CC` [Peptide 30P-3], with 9.
